{
  "source": "PubChem BioAssay AID540276",
  "about": "(National Center for Advancing Translational Sciences (NCATS), 2011)",
  "note": "Out of some 300,000 compounds screened, about 5,400 (1.8%) were called active. Inconclusive means that the source gave no clear call. Such entries were picked first, then a sample of the others. Calls follow the shape of the full dose curve; tested in HEK293 cells. Where the call is inconclusive, the potency comes from a doubtful curve fit. % is scaled to controls: 0 for no effect and ±100 for the full control effect; potency is read from the fitted curve at half-maximal effect.",
  "data": [
    {"assay": "qHTS for inhibitors of binding or entry into cells for Marburg Virus", "conditions": "Marburg virus pseudotyped entry inhibition, cell reporter; activity change, negative = inhibition: at 37.8 µM (top of the series) unless noted", "values": [
      {"smiles": "CC(=O)OC[C@H]1O[C@H](C#Cc2ccc(F)cc2F)C=C[C@@H]1OC(C)=O", "Potency": "inconclusive: 2.66 µM [activator, single point]"},
      {"smiles": "Cc1ccc(-c2csc(-c3nc(-c4ccc(Br)s4)cs3)n2)cc1", "Potency": "inconclusive: 35.5 µM [inhibitor, single point]"},
      {"smiles": "Cc1ccc(-n2cccn2)c(CN2CCCC(C(=O)c3ccc4c(c3)OCO4)C2)c1", "note": "(centres undefined)", "Potency": "active: 10 µM"},
      {"smiles": "Cc1ccc2c(COC(=O)CC3Sc4ccccc4NC3=O)cc(=O)oc2c1C", "note": "(centres undefined)", "Potency": "inconclusive: 3.98 µM [activator, single point]"},
      {"smiles": "CCN(CC)CCNC(=O)Cn1ncc2c3ccccc3n(Cc3ccc(Cl)cc3)c2c1=O", "activity change, negative = inhibition": "inactive: -10.3% [at 46.1 µM]"},
      {"smiles": "Clc1c(OCCCn2ccnc2)ccc2ccccc12", "Potency": "inconclusive: 11.2 µM [inhibitor, partial curve]"},
      {"smiles": "OCC1(Cc2ccccc2)CCCN(C2CCCC2)C1", "note": "(centres undefined)", "Potency": "inconclusive: 8.91 µM [inhibitor, partial curve]"},
      {"smiles": "COc1ccc(C2Oc3ccccc3C3=C2C(c2cccs2)n2ncnc2N3)cc1", "note": "(centres undefined)", "Potency": "inconclusive: 18.3 µM [inhibitor, single point]"},
      {"smiles": "Clc1ccc(C2=NN(c3ccccc3)C(c3ccco3)C2)cc1", "note": "(centres undefined)", "Potency": "inconclusive: 6.31 µM [inhibitor, full curve, poor fit]"},
      {"smiles": "COC(=O)c1cc2c(s1)-c1ccccc1CC2", "activity change, negative = inhibition": "inactive: 3.23% [at 46.1 µM]"},
      {"smiles": "CCCCN1CC(c2nc3ccccc3n2CCCCOc2cc(C)ccc2C)CC1=O", "note": "(centres undefined)", "Potency": "inconclusive: 35.5 µM [inhibitor, single point]"},
      {"smiles": "Cc1cccn2c(=O)c3cc(C(=O)NCC4CCCO4)c(=N)n(CCN4CCOCC4)c3nc12", "note": "(centres undefined)", "Potency": "inactive"},
      {"smiles": "COc1ccc(-n2nc(C(=O)NCC(=O)NCc3ccc(F)cc3)c3ccccc3c2=O)cc1OC", "Potency": "inconclusive: 10 µM [inhibitor, partial curve, poor fit]"},
      {"smiles": "Nc1ccc(C23CC4CC(CC(O)(C4)C2)C3)cc1", "Potency": "inconclusive: 5.62 µM [activator, single point]"},
      {"smiles": "Cc1cc(NC(=O)c2ccc(F)cc2F)n(-c2nc3ccccc3[nH]2)n1", "Potency": "inconclusive: 18.3 µM [inhibitor, partial curve, poor fit]"},
      {"smiles": "COc1ccc(CCNC(=O)C2CCN(S(=O)(=O)c3cccc4nonc34)CC2)cc1OC", "Potency": "inactive"},
      {"smiles": "Cc1cc(=O)c(C(=O)O)cn1Nc1ccc(Cl)cc1", "Potency": "inconclusive: 3.16 µM [inhibitor, single point]"},
      {"smiles": "COc1ccccc1Oc1ccc(S(=O)(=O)Nc2cccnc2)cc1", "Potency": "inconclusive: 11.6 µM [inhibitor, partial curve]"},
      {"smiles": "Nc1cccnc1S(=O)(=O)c1ccccc1", "activity change, negative = inhibition": "inactive: 0.105% [at 46.1 µM]"},
      {"smiles": "CC(OC(=O)CCN=C1NS(=O)(=O)c2ccccc21)C(=O)Nc1ccc(F)cc1", "note": "(centres undefined)", "Potency": "inconclusive: 0.501 µM [inhibitor, partial curve, poor fit]"},
      {"smiles": "O=C(Nc1cccc(F)c1)NC1(C(=O)NCC2CCCO2)CCCCC1", "note": "(centres undefined)", "Potency": "inconclusive: 3.55 µM [inhibitor, partial curve, poor fit]"},
      {"smiles": "CCC(C)(C)NC(=O)CN(CCc1cccc(C)c1)C(=O)c1csnn1", "Potency": "inconclusive: 14.1 µM [activator, partial curve, poor fit]"},
      {"smiles": "Cn1c(NN)nc2sc3c(c2c1=O)CC(C)(C)OC3", "activity change, negative = inhibition": "inactive: -3.24%"},
      {"smiles": "CC(O)CNc1nc2sc3c(c2c(=O)n1CCc1ccccc1)CCCCC3", "note": "(centres undefined)", "Potency": "inconclusive: 5.17 µM [inhibitor, partial curve, poor fit]"},
      {"smiles": "Cc1ccc(NC(=O)c2c(C)cc(C)nc2SCC(=O)Nc2ccc(Br)cc2)cc1", "Potency": "inconclusive: 7.08 µM [inhibitor, partial curve, poor fit]"},
      {"smiles": "Clc1cccc(Cl)c1Cn1c(-c2cccnc2Cl)nc2ccccc21", "Potency": "inconclusive: 29.1 µM [inhibitor, partial curve, poor fit]"},
      {"smiles": "CC(C)(C)C(=O)NC(=S)Nc1ccc(F)cc1", "Potency": "inconclusive: 10 µM [activator, partial curve, poor fit]"},
      {"smiles": "N#Cc1c(N)nc2c(c1N)CC(CO)O2", "note": "(centres undefined)", "activity change, negative = inhibition": "inactive: -1.36%"},
      {"smiles": "COc1ccc(N(Cc2cc3ccccc3[nH]c2=O)C(=O)c2cccc(Cl)c2)cc1", "Potency": "inconclusive: 0.891 µM [activator, full curve, poor fit]"},
      {"smiles": "COc1ccc(C(=O)N/N=C2\\CCc3ccccc32)cc1OC", "Potency": "inconclusive: 2.51 µM [inhibitor, partial curve, poor fit]"},
      {"smiles": "COc1ccc(C2=NN(C(=O)CSc3nc4ccccc4s3)C(c3ccc(OC)cc3)C2)cc1", "note": "(centres undefined)", "Potency": "inconclusive: 11.2 µM [inhibitor, single point]"},
      {"smiles": "O=S1(=O)CCN2C=C(Cl)C=C(Cl)C2=N1", "Potency": "inconclusive: 2.82 µM [inhibitor, partial curve, poor fit]"},
      {"smiles": "COc1cccc(NC(=S)N/N=C2\\CC3CCC2(C)C3(C)C)c1", "note": "(centres undefined)", "Potency": "inconclusive: 35.5 µM [inhibitor, single point]"},
      {"smiles": "CCc1sc(C(=O)Nc2nc(-c3ccccn3)cs2)cc1C", "Potency": "inconclusive: 35.5 µM [inhibitor, single point]"},
      {"smiles": "CC(=O)c1cccc(Nc2nc(-c3cccnc3)cs2)c1", "Potency": "inconclusive: 3.16 µM [activator, partial curve, poor fit]"},
      {"smiles": "Cc1cc(Nc2ccc(Cl)cc2)nc(N)n1", "activity change, negative = inhibition": "inactive: 1.79%"},
      {"smiles": "Fc1ccccc1-c1nnc2ccc3ccccc3n12", "activity change, negative = inhibition": "inactive: 2.01% [at 46.1 µM]"},
      {"smiles": "CC1CC(NC(=O)C2C3CCC(O3)C2C(=O)O)CC(C)(C)C1", "note": "(centres undefined)", "Potency": "inconclusive: 12.6 µM [inhibitor, partial curve]"},
      {"smiles": "Cc1ccc(Nc2nc3ccccc3s2)c(C)c1", "Potency": "active: 8.2 µM"},
      {"smiles": "Cc1ccc(O)c(NS(=O)(=O)c2cccc3nsnc23)c1", "activity change, negative = inhibition": "inactive: 9.55% [at 46.1 µM]"},
      {"smiles": "CCOC(=O)c1cc([N+](=O)[O-])cc([N+](=O)[O-])c1Sc1ncnc2nc[nH]c12", "Potency": "inconclusive: 10 µM [inhibitor, partial curve, poor fit]"},
      {"smiles": "COc1ccc(Nc2c(C)cccc2C)cc1", "activity change, negative = inhibition": "inactive: -2.8%"},
      {"smiles": "CN(CC(O)COc1ccc(OCC(O)CN(C)C2CCCCC2)cc1)C1CCCCC1", "note": "(centres undefined)", "Potency": "active: 10 µM"},
      {"smiles": "Cc1ccc(Cn2nc(C)cc2C(=O)Nc2ccccc2Cl)cc1", "Potency": "inconclusive: 1 µM [activator, full curve, poor fit]"}
    ]}
  ]
}
